The exact form of at least one protein or probe is not confirmed. Weaker means in comparison with the reference protein, sequence or condition of that experiment. At least one verdict rests on a figure or table, not on a statement of the authors.

Data set [1] deals with BdPIL3 (Brachypodium distachyon). The data set is described as follows: EMSA. Particulars: EMSA: 1 pmol probe, 2 ug protein in 20 uL, 50 mM Tris-HCl pH 7.5, 50 mM NaCl, 200 mM KCl, 5 mM MgCl2, 5 mM EDTA, 5 mM DTT, 30 min, recombinant protein, protein details: N-terminal GST, C-terminal strep-tag (SAWRHPQFGG), label: 5'-32P. Background: A gel shift assay detects complexes by their altered migration in electrophoresis.

For data set [2], the system named is BdPIL1 (Brachypodium distachyon). The data set is described as follows: EMSA. To be noted: EMSA: 1 pmol probe, 2 ug protein in 20 uL, 50 mM Tris-HCl pH 7.5, 50 mM NaCl, 200 mM KCl, 5 mM MgCl2, 5 mM EDTA, 5 mM DTT, 30 min, recombinant protein, protein details: N-terminal GST, C-terminal strep-tag (SAWRHPQFGG), label: 5'-32P.
Setting [3] is: BdphyA Pfr 0.1-2 ug added, binding inhibited.
Setting [4] is: 10x and 20x cold competitor tested.
The mark [5] stands for this setting: AtphyB Pfr 0.1-2 ug added, binding inhibited.

As for “GCATGAATGCACGTACGGAGTTTGGTACGCATGCATGTGTACATGTAGTGTACGTGAATG (double strand) [BdSAUR50 promoter probe (E-box)]”, the binding result is listed as “binds” in data set [1] (20x cold competitor tested), “binds more weakly” in data set [1] (setting [3]), “binds” in data set [2] (20x cold competitor tested) and “binds more weakly” in data set [2] (setting [3]).
Take “CACGTACGCCTGCACGCGCAGACGCGCTCCATCGATTATACTACTTCCTCCGGCCGGAAT (double strand) [BdPOR promoter probe (N-box)]”: the binding result is listed as “binds” in data set [1] (setting [4]); “binds more weakly” in data set [1] (setting [5]); “binds more weakly” in data set [1] (BdphyA Pfr 0.1-2 ug added, inhibited more efficiently than BdPIL1); “binds” in data set [2] (setting [4]); “binds more weakly” in data set [2] (setting [5]); “binds more weakly” in data set [2] (setting [3]).
With “TTGGTAATAGAAGTTGTTTGGTCGCACCATTGGAGAACACGTGAATTTTTTATTGATTGC (double strand) [BdMIR156H promoter probe (G-box)]”, the binding result in data set [1] (20x cold competitor tested) and in data set [2] (20x cold competitor tested) was “binds” each time.
